{"sequences": {"note": "By UniProt entry, the sequences of proteins in these tests, tags left out. Where a name states a change or a piece, a line headed by the entry shows the natural chain unless it says otherwise.", "UniProt P51788": "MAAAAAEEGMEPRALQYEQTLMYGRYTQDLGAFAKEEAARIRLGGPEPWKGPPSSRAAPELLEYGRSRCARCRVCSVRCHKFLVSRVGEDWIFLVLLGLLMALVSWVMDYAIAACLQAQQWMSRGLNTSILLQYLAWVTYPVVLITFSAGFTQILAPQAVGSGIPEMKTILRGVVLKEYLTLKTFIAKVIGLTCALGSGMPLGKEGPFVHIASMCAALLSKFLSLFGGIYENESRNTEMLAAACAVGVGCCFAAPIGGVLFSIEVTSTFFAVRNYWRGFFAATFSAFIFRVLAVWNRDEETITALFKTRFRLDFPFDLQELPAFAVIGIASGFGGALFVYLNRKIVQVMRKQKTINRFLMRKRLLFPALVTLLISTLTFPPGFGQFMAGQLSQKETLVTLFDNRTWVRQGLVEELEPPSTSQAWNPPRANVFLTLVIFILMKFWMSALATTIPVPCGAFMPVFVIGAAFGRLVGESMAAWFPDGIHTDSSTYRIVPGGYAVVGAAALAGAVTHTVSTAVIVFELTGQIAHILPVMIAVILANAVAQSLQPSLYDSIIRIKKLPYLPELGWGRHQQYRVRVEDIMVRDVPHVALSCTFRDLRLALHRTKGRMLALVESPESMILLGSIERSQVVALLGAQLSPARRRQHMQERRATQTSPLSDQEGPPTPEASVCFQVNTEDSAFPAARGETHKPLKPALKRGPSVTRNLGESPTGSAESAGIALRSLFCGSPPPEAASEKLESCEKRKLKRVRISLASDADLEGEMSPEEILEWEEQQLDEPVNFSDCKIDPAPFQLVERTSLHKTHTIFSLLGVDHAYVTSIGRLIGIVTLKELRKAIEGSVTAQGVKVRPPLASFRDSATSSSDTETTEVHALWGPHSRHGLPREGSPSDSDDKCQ"}, "source": "paper PMC4387756", "binders": {"B1": {"name": "epithelial sodium channel gamma subunit (ENaCγ), endogenous (protein, UniProt P51170 1-649)", "chain": "MAPGEKIKAKIKKNLPVTGPQAPTIKELMRWYCLNTNTHGCRRIVVSRGRLRRLLWIGFTLTAVALILWQCALLVFSFYTVSVSIKVHFRKLDFPAVTICNINPYKYSTVRHLLADLEQETREALKSLYGFPESRKRREAESWNSVSEGKQPRFSHRIPLLIFDQDEKGKARDFFTGRKRKVGGSIIHKASNVMHIESKQVVGFQLCSNDTSDCATYTFSSGINAIQEWYKLHYMNIMAQVPLEKKINMSYSAEELLVTCFFDGVSCDARNFTLFHHPMHGNCYTFNNRENETILSTSMGGSEYGLQVILYINEEEYNPFLVSSTGAKVIIHRQDEYPFVEDVGTEIETAMVTSIGMHLTESFKLSEPYSQCTEDGSDVPIRNIYNAAYSLQICLHSCFQTKMVEKCGCAQYSQPLPPAANYCNYQQHPNWMYCYYQLHRAFVQEELGCQSVCKEACSFKEWTLTTSLAQWPSVVSEKWLLPVLTWDQGRQVNKKLNKTDLAKLLIFYKDLNQRSIMESPANSIEMLLSNFGGQLGLWMSCSVVCVIEIIEVFFIDFFSIIARRQWQKAKEWWAWKQAPPCPEAPRSPQGQDNPALDIDDDLPTFNSALHLPPALGTQVPGTPPPKYNTLRLERAFSNQLTDTQMLDEL"}}, "key": {"[1]": {"target": "549-ClC2 (FLAG-tagged ClCN2 truncated to remove the entire c-tail) (UniProt P51788)", "experiment": "co-IP; FLAG-tagged wild-type or truncated ClCN2 immunoprecipitated with 1.5 μg FLAG antibody and protein A/G sepharose beads from transfected polarized CFBE cell lysates, blot for endogenous ENaCγ; normalised to the FLAG pulldown"}, "[2]": {"target": "790-ClC2 (FLAG-tagged ClCN2 truncated to remove the CBS2 domain) (UniProt P51788)", "experiment": "co-IP; FLAG-tagged wild-type or truncated ClCN2 immunoprecipitated with 1.5 μg FLAG antibody and protein A/G sepharose beads from transfected polarized CFBE cell lysates, blot for endogenous ENaCγ; normalised to the FLAG pulldown"}}, "note": "No constants are given. Whether binding was seen depends on the method and setting. Binding seen in cells or lysates may run through a third protein. Binding calls can cover weak binding; strength is not graded here."}
{"binder": "B1", "values": [{"measurement": "binding", "setting": "[1]", "value": "binds"}, {"measurement": "binding", "setting": "[2]", "value": "binds"}]}
